Assay [1] concerns the target T1, TaLTP3-YFP^N, full-length TaLTP3 with signal peptide fused to the N-terminal half of YFP (Triticum aestivum (common wheat line Chinese Spring)) (UniProt Q84N29).
T1 sequence: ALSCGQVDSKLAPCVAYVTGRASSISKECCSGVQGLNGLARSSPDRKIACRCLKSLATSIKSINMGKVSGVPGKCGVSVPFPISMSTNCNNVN
In words: split reporter; BiFC: YFP^N and YFP^C fusions coexpressed in N. benthamiana leaves by Agrobacterium infiltration; yellow fluorescence checked 48 hpi.

The target in assay [2] is T2, TaLTP3(30-122)-GFP (Triticum aestivum (common wheat line Chinese Spring)) (UniProt Q84N29).
T2 sequence: T1 sequence
The experiment in a line: co-IP; coexpression in N. benthamiana (tobacco) leaves, total proteins extracted at 3 dpi, IP with GFP-trap beads, immunoblot with α-GFP and α-cMYC.

No constants are given. Whether binding was seen depends on the method and setting. In cells and extracts the contact can be indirect. Binding calls can cover weak binding; strength is not graded here. Sequences can lack the tags named with a protein.

On to “SP(TaPR1a)-YFP^C, signal peptide of TaPR1a fused to the C-terminal half of YFP (wheat (Triticum aestivum)) (domain or fragment)”, for which, in assay [1], the binding entry is “no binding”. With “TaPR1a-YFP^C, complete coding region of TaPR1a fused to the C-terminal half of YFP (wheat (Triticum aestivum))”, in assay [1], the binding entry was “binds”. Take “TaPR1a(25-164)-cMYC (wheat (Triticum aestivum)) (domain or fragment)”: the binding result in assay [2] is on record as “binds”.
